Values from PubChem BioAssay AID1259254 (NCATS, 2017)
The deposit covers about 59,000 reagents; this is a random part of them. About 1,550 of all reagents (2.6%) count as active. 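G2 share is only a proxy for re-replication; each gene was hit by three separate siRNAs, and active genes were retested.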 Unmarked entries are inactive. Reagents against one gene are numbered here. Further read-outs or replicates are left out here. The record does not give: the amount of reagent.

Aim: 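Finding genes that stop cells copying their DNA twice in one cycle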 (primary screen)
Cell system: human HCT116 colorectal cancer cells
Knock-down reagent: single siRNA against human genes
Timing: 3 days
Measured: 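Imaged Hoechst DNA stain sorts each cell into a cycle phase by DNA amount; per plate, G2 fraction set to 0% for non-targeting and 100% for GMNN siRNA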
Scale: G2 robust z-score and G2 cells, % of GMNN control: higher = more G2 cells, more excess DNA replication
Call rule: 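Active siRNAs have a G2 robust z of 5 or more median absolute deviations over the median, which in these data means about 38% or higher of GMNN control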

PIF1 (PIF1 5'-to-3' DNA helicase) #1: G2 robust z-score = 0.725; G2 cells, % of GMNN control = 8.07
PIF1 (PIF1 5'-to-3' DNA helicase) #2: G2 robust z-score = 0.172; G2 cells, % of GMNN control = 4.18
PIF1 (PIF1 5'-to-3' DNA helicase) #3: G2 robust z-score = 0.126; G2 cells, % of GMNN control = 3.86
FAM114A2 (family with sequence similarity 114 member A2) #1: G2 robust z-score = 8.57 (active); G2 cells, % of GMNN control = 63.3
FAM114A2 (family with sequence similarity 114 member A2) #2: G2 robust z-score = 0.222; G2 cells, % of GMNN control = 4.53
FAM114A2 (family with sequence similarity 114 member A2) #3: G2 robust z-score = -0.836; G2 cells, % of GMNN control = -2.91
SPMIP5 (sperm microtubule inner protein 5) #1: G2 robust z-score = -0.489; G2 cells, % of GMNN control = -0.477
SPMIP5 (sperm microtubule inner protein 5) #2: G2 robust z-score = -0.52; G2 cells, % of GMNN control = -0.692
SPMIP5 (sperm microtubule inner protein 5) #3: G2 robust z-score = -1; G2 cells, % of GMNN control = -4.08
PCDHA8 (protocadherin alpha 8) #1: G2 robust z-score = -0.79; G2 cells, % of GMNN control = -2.59
PCDHA8 (protocadherin alpha 8) #2: G2 robust z-score = -0.621; G2 cells, % of GMNN control = -1.4
PCDHA8 (protocadherin alpha 8) #3: G2 robust z-score = 2.9; G2 cells, % of GMNN control = 23.4
BGN (biglycan) #1: G2 robust z-score = -1.27; G2 cells, % of GMNN control = -5.94
BGN (biglycan) #2: G2 robust z-score = 0.0738; G2 cells, % of GMNN control = 3.49
BGN (biglycan) #3: G2 robust z-score = -0.426; G2 cells, % of GMNN control = -0.0333
ATRIP (ATR interacting protein) #1: G2 robust z-score = 0.793; G2 cells, % of GMNN control = 8.55
ATRIP (ATR interacting protein) #2: G2 robust z-score = 0.0827; G2 cells, % of GMNN control = 3.55
ATRIP (ATR interacting protein) #3: G2 robust z-score = -0.314; G2 cells, % of GMNN control = 0.758
ACCS #1: G2 robust z-score = 1.18; G2 cells, % of GMNN control = 11.3
ACCS #2: G2 robust z-score = -0.0838; G2 cells, % of GMNN control = 2.38
ACCS #3: G2 robust z-score = 3.65; G2 cells, % of GMNN control = 28.6
METTL18 (methyltransferase 18, RPL3 N3(tau)-histidine) #1: G2 robust z-score = 0.313; G2 cells, % of GMNN control = 5.17
METTL18 (methyltransferase 18, RPL3 N3(tau)-histidine) #2: G2 robust z-score = 1.25; G2 cells, % of GMNN control = 11.7
METTL18 (methyltransferase 18, RPL3 N3(tau)-histidine) #3: G2 robust z-score = 3.46; G2 cells, % of GMNN control = 27.3

3 consecutive reagents already listed:
ATRIP (ATR interacting protein) #1: G2 robust z-score = 0.793; G2 cells, % of GMNN control = 8.55
ATRIP (ATR interacting protein) #2: G2 robust z-score = 0.0827; G2 cells, % of GMNN control = 3.55
ATRIP (ATR interacting protein) #3: G2 robust z-score = -0.314; G2 cells, % of GMNN control = 0.758
